Measurements as given in the supplement of paper PMC12823440, “Inhibitors supercharge kinase turnover through native proteolytic circuits” (Nature, 2025).
The other results are listed elsewhere or left out. Hit calls seldom repeat between salt and free forms of one compound.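 In K562 cells expressing nanoluciferase-fused kinases, luminescence was recorded at 4 h intervals between 2 and 18 h, normalized as percent of control with DMSO at 100% and a positive control at 0%. A significant (2 sigma) signal drop marks a time point as decreased. The authors' rule for a hit is not shown and takes in more than the number of time points.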

Sequences of proteins named here, by UniProt entry; tags and fusion partners are left off. A change or cut given only in a name is not applied to a line headed by its entry.
UniProt P41240: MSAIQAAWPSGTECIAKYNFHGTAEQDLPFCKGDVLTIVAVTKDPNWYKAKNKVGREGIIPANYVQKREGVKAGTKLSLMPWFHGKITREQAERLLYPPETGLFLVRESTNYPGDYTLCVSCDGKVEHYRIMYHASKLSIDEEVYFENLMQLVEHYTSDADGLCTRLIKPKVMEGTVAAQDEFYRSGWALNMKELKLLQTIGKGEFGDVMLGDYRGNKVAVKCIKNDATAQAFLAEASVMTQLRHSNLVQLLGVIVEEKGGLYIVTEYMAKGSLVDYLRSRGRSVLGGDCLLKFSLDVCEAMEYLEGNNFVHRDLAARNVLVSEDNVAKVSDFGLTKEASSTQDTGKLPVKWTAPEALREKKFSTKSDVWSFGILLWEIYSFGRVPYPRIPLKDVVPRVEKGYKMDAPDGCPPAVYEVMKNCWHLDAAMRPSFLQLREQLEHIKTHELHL

Molecular target: CSK (UniProt P41240)
Assay: number of time points (of 5) at which kinase-Nluc abundance scored as decreased, DMSO-normalised (count); higher = more persistent destabilization
Conditions: K562; 2-18 h

Row | SMILES | number of time points
1 | Cn1nccc1Nc1nccc(-c2ccn([C@H](CO)c3ccc(Cl)c(F)c3)c(=O)c2)n1 [Ravoxertinib] (10 µM) | 0
2 | COc1cc(Nc2ncc(F)c(Nc3ccc4c(n3)NC(=O)C(C)(C)O4)n2)cc(OC)c1OC [R406 (free base)] (10 µM) | 0
3 | S=C(SSC(=S)N1CCOCC1)N1CCOCC1 (10 µM) | 0
4 | CC1CCc2c(cc(Br)c(F)c2Br)N1C=O (stereo unspecified) (10 µM) | 0
5 | Cc1[nH]c(/C=C2\C(=O)Nc3ccccc32)c(C)c1CCC(=O)O [(Z)-Orantinib] (10 µM) | 0
6 | CCN1CCN(Cc2ccc(Nc3ncc(F)c(-c4cc(F)c5nc(C)n(C(C)C)c5c4)n3)nc2)CC1 [Abemaciclib (methanesulfonate)] (10 µM) | 0
7 | Cn1cnc2c(F)c(Nc3ccc(Br)cc3Cl)c(C(=O)NOCCO)cc21 [Selumetinib] (10 µM) | 0
8 | CCc1cc2c(cc1N1CCC(N3CCOCC3)CC1)C(C)(C)c1[nH]c3cc(C#N)ccc3c1C2=O [Alectinib] (10 µM) | 0
9 | C=C(CC[C@@H](C(=O)O)[C@H]1[C@H](O)C[C@@]2(C)C3=C(CC[C@]12C)[C@@]1(C)CC[C@H](OC(C)=O)C(C)(C)[C@@H]1CC3)C(C)C [Pachymic acid] (10 µM) | 0
10 | Cc1[nH]c(/C=C2\C(=O)Nc3ccccc32)c(C)c1CCC(=O)O [Orantinib] (10 µM) | 0
11 | C=CC(=O)Nc1ccc(CN2C(=O)N(c3cc(OC)cc(OC)c3)Cc3cnc(Nc4ccc(N5CCN(C)CC5)cc4)nc32)cc1 (2.5 µM) | 0

Single entries from the list:
Entry of CCc1cc2c(cc1N1CCC(N3CCOCC3)CC1)C(C)(C)c1[nH]c3cc(C#N)ccc3c1C2=O [Alectinib] (10 µM) under number of time points: 0
Entry of C=C(CC[C@@H](C(=O)O)[C@H]1[C@H](O)C[C@@]2(C)C3=C(CC[C@]12C)[C@@]1(C)CC[C@H](OC(C)=O)C(C)(C)[C@@H]1CC3)C(C)C [Pachymic acid] (10 µM) under number of time points: 0
